The test system of this experiment is HEK293A TEAD-LUC reporter. Kind of experiment: TEAD-luciferase reporter activity (YAP activation), robust Z score vs plate; higher = stronger YAP/TEAD activation. The note with it: 24 h. For orientation: In a reporter assay the amount or activity of a reporter protein is the signal.

Where a name gives a salt, the structure may show the parent alone. This is one part of the list. Repeats in this data set agree poorly, so a single value says little.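 In a drug-repurposing library screen, luminescence reads luciferase driven by eight TEAD-binding elements, stably integrated into human kidney-derived cells. Compounds scoring over five robust Z scores above the plate mean are called hits.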

`CC1(C(=O)O)CC[C@]2(C)CC[C@]3(C)C(=CC(=O)[C@@H]4[C@@]5(C)CC[C@H](OC(=O)CCC(=O)O)C(C)(C)C5CC[C@]43C)[C@@H]2C1` (some centres not stated) [carbenoxolone, York]: the TEAD-luciferase reporter activity is inactive: 0.401 (compound concentration: 200 nM), inactive: 2.06 (compound concentration: 2 uM) and inactive: 1.43 (compound concentration: 10 uM).

Turning to `CCCCc1cc(NC(=O)c2cc(OC)c(OC)c(OC)c2)n2nccc2n1`, the TEAD-luciferase reporter activity is inactive: -1.52 (compound concentration: 200 nM), inactive: 0.639 (compound concentration: 2 uM) and inactive: -0.816 (compound concentration: 10 uM).

Turning to `C[N+](C)(C)CCOP(=O)([O-])OP(=O)([O-])OCC1OC(n2ccc(N)nc2=O)[C@H](O)[C@@H]1O` (some centres not stated) [citicoline], the TEAD-luciferase reporter activity (compound concentration: 200 nM) is inactive: 0.676 and the TEAD-luciferase reporter activity (compound concentration: 10 uM) is inactive: 1.61.

On to `CC(=O)NC[C@H]1CN(c2ccc(N3CCN(c4ccccn4)CC3)c(F)c2)C(=O)O1`, for which the TEAD-luciferase reporter activity is inactive: 0.0146 (compound concentration: 200 nM), inactive: 1.18 (compound concentration: 2 uM) and inactive: -0.698 (compound concentration: 10 uM).

In the case of `C[C@H]1c2c([nH]c3ccc(C(F)(F)F)cc23)C[C@H]2CCN(CCC3(C(=O)O)CCCCC3)C[C@@H]21`, the TEAD-luciferase reporter activity runs as follows: (compound concentration: 200 nM) inactive: 3.26; (compound concentration: 2 uM) inactive: 0.873; (compound concentration: 10 uM) inactive: -0.428.

In the case of `COc1cccc(-c2ccc(C(=O)N3CCC(C(=O)NCc4ccc5c(c4)OCO5)CC3)cc2)c1`, the TEAD-luciferase reporter activity by setting is: (compound concentration: 200 nM) inactive: 2.29; (compound concentration: 10 uM) active: 6.55.

In the case of `Cc1ccc(/C=N/NC(N)=S)s1`, the TEAD-luciferase reporter activity was inactive: -0.691 (compound concentration: 200 nM), inactive: 2.74 (compound concentration: 2 uM) and inactive: 1.53 (compound concentration: 10 uM).

Take `CC1(C)Oc2ccc(NC(=O)/C=C3\CCCOc4cc(C(F)(F)F)ccc43)cc2NC1=O`: the TEAD-luciferase reporter activity reads like this: (compound concentration: 200 nM) inactive: -1.26; (compound concentration: 2 uM) inactive: -1.3; (compound concentration: 10 uM) inactive: 2.06.

With `CC(=O)[C@@]1(O)CC[C@H]2[C@@H]3C[C@H](C)C4=CC(=O)C=C[C@]4(C)[C@@]3(F)[C@@H](O)C[C@@]21C` [fluorometholone, Allergan], the TEAD-luciferase reporter activity was inactive: -1.41 (compound concentration: 200 nM), inactive: 0.963 (compound concentration: 2 uM) and inactive: 3.37 (compound concentration: 10 uM).

As to `CN(C)CCCn1c(=O)c2ccccc2c2ccccc21`, the TEAD-luciferase reporter activity runs as follows: (compound concentration: 200 nM) inactive: 3.36; (compound concentration: 2 uM) active: 7.73; (compound concentration: 10 uM) active: 5.64.

Turning to `O=C(O)c1cc(-n2c(-c3ccccc3)cc3c2CCc2ccccc2-3)ccc1O`, the TEAD-luciferase reporter activity reads like this: (compound concentration: 200 nM) inactive: -0.03; (compound concentration: 2 uM) inactive: 3.78; (compound concentration: 10 uM) inactive: 1.02.

Regarding `Nc1nnc(NCCCOc2cccc(CN3CCCCC3)c2)s1`, the TEAD-luciferase reporter activity runs as follows: (compound concentration: 200 nM) inactive: -0.83; (compound concentration: 2 uM) inactive: -0.943.

Regarding `CCCCOc1cccc(CCNCC(=O)N(C)C)c1` [Evenamide hydrochloride], the TEAD-luciferase reporter activity by setting is: (compound concentration: 200 nM) inactive: -1.41; (compound concentration: 2 uM) inactive: 0.485; (compound concentration: 10 uM) inactive: 0.345.

In the case of `CC1(CCN2CCCCC2)C(=O)CCc2ccccc21` (configuration not stated) [Nepinalone], the TEAD-luciferase reporter activity reads like this: (compound concentration: 200 nM) inactive: -1.43; (compound concentration: 2 uM) inactive: -1.19; (compound concentration: 10 uM) inactive: -0.0362.

As for `COc1cccc(C2c3[nH]c4ccccc4c3C[C@H]3C(=O)N(CCC4=CCCCC4)CC(=O)N23)c1OC` (some centres not stated), the TEAD-luciferase reporter activity (compound concentration: 200 nM) is inactive: -0.923, the TEAD-luciferase reporter activity (compound concentration: 2 uM) was inactive: -1.78 and the TEAD-luciferase reporter activity (compound concentration: 10 uM) was inactive: -2.37.

With `CCCCCCN(CCO)c1cc(N(CC)CC)nc2ncnn12`, the TEAD-luciferase reporter activity runs as follows: (compound concentration: 200 nM) inactive: 0.0146; (compound concentration: 2 uM) inactive: -0.581; (compound concentration: 10 uM) inactive: 1.78.

For `C#C[C@]1(OC(C)=O)CC[C@H]2[C@@H]3CCC4=CC(N=O)CC[C@@H]4[C@H]3CC[C@@]21CC` (some centres not stated) [Norgestimate], the TEAD-luciferase reporter activity (compound concentration: 200 nM) is inactive: -0.707, the TEAD-luciferase reporter activity (compound concentration: 2 uM) is inactive: 4.59 and the TEAD-luciferase reporter activity (compound concentration: 10 uM) is active: 8.86.

As to `CN1[C@@H]2CC[C@H]1C[C@@H](NC(=O)c1cc(Cl)cc3c1OC(C)(C)C3)C2`, the TEAD-luciferase reporter activity (compound concentration: 200 nM) is inactive: -2.28, the TEAD-luciferase reporter activity (compound concentration: 2 uM) is inactive: -0.38 and the TEAD-luciferase reporter activity (compound concentration: 10 uM) was inactive: 1.05.

Turning to `COC(=O)C1=C(C)NC(C)=C(C(=O)OCCN2CCN(C(c3ccccc3)c3ccccc3)CC2)C1c1cccc([N+](=O)[O-])c1` (configuration not stated) [Manidipine (Manyper)], the TEAD-luciferase reporter activity reads like this: (compound concentration: 200 nM) inactive: 0.787; (compound concentration: 10 uM) inactive: -0.754.

For `COC(=O)C1=C(C)NC(C)=C(C(=O)OCCN2CCN(C(c3ccccc3)c3ccccc3)CC2)C1c1cccc([N+](=O)[O-])c1` (configuration not stated) [manidipine], the TEAD-luciferase reporter activity (compound concentration: 2 uM) was inactive: -2.34.

As for `O=S1(=O)OC(c2ccc(O)cc2)(c2ccc(O)cc2)c2ccccc21`, the TEAD-luciferase reporter activity was inactive: -2.8 (compound concentration: 200 nM), inactive: -2.52 (compound concentration: 2 uM) and active: 6.64 (compound concentration: 10 uM).

In the case of `NCCCNc1ccc2c3c(nn2CCNCCO)-c2c(O)ccc(O)c2C(=O)c13` [Piroxantrone], the TEAD-luciferase reporter activity was inactive: -0.137 (compound concentration: 200 nM), inactive: 1.98 (compound concentration: 2 uM) and inactive: 3 (compound concentration: 10 uM).

In the case of `COc1c(-c2ccc3cc(NS(C)(=O)=O)ccc3c2)cc(-n2ccc(=O)[nH]c2=O)cc1C(C)(C)C` [Dasabuvir], the TEAD-luciferase reporter activity is, setting by setting: (compound concentration: 200 nM) inactive: -1.18; (compound concentration: 2 uM) inactive: 1.18; (compound concentration: 10 uM) inactive: 0.00209.

In the case of `COc1c(C)cnc(Cn2cc(C#CCCOP(=O)(O)O)c3c(Cl)nc(N)nc32)c1C`, the TEAD-luciferase reporter activity runs as follows: (compound concentration: 200 nM) inactive: -0.0199; (compound concentration: 10 uM) inactive: -1.75.

Take `CC(=O)N1Cc2ccccc2CC2(CCCN2C)C1` (configuration not stated): the TEAD-luciferase reporter activity was active: 5.49 (compound concentration: 200 nM) and inactive: 2.51 (compound concentration: 10 uM).

As to `Cc1[nH]c2ccccc2c1C[C@H](NC(=O)[C@@H](Cc1c(C)[nH]c2ccccc12)NC(=O)[C@@H](Cc1c(C)[nH]c2ccccc12)NC(=O)CCCN)C(=O)N[C@@H](CCCCN)C(N)=O`, the TEAD-luciferase reporter activity (compound concentration: 200 nM) is inactive: 0.608, the TEAD-luciferase reporter activity (compound concentration: 2 uM) is inactive: -1.01 and the TEAD-luciferase reporter activity (compound concentration: 10 uM) was inactive: -0.561.

`O=CC(O)C(O)C(O)C(O)COP(=O)(O)O` (configuration not stated) [mannose-6-phosphate, BTG]: the TEAD-luciferase reporter activity (compound concentration: 200 nM) was inactive: -0.975 and the TEAD-luciferase reporter activity (compound concentration: 10 uM) was inactive: -0.0018.

For the origin of these results see the supplement of paper PMC10735217.
